Measured values: PubChem BioAssay (EPA / NIEHS)
Inconclusive results, whose numbers are uncertain, are shown with a selection of clear calls. Where the call is inconclusive, the potency comes from a doubtful curve fit. Calls of active or inactive are those of the source. The calls were made as follows: active = hit-call score of the fitted dose curve at least 0.9, where 1 is the maximum; inconclusive = response in the unintended direction; inactive = score below 0.9.

Amino acid sequences for entries named in this document (tags omitted). A change or cut given only in a name is not applied to a line headed by its entry.
UniProt P23385: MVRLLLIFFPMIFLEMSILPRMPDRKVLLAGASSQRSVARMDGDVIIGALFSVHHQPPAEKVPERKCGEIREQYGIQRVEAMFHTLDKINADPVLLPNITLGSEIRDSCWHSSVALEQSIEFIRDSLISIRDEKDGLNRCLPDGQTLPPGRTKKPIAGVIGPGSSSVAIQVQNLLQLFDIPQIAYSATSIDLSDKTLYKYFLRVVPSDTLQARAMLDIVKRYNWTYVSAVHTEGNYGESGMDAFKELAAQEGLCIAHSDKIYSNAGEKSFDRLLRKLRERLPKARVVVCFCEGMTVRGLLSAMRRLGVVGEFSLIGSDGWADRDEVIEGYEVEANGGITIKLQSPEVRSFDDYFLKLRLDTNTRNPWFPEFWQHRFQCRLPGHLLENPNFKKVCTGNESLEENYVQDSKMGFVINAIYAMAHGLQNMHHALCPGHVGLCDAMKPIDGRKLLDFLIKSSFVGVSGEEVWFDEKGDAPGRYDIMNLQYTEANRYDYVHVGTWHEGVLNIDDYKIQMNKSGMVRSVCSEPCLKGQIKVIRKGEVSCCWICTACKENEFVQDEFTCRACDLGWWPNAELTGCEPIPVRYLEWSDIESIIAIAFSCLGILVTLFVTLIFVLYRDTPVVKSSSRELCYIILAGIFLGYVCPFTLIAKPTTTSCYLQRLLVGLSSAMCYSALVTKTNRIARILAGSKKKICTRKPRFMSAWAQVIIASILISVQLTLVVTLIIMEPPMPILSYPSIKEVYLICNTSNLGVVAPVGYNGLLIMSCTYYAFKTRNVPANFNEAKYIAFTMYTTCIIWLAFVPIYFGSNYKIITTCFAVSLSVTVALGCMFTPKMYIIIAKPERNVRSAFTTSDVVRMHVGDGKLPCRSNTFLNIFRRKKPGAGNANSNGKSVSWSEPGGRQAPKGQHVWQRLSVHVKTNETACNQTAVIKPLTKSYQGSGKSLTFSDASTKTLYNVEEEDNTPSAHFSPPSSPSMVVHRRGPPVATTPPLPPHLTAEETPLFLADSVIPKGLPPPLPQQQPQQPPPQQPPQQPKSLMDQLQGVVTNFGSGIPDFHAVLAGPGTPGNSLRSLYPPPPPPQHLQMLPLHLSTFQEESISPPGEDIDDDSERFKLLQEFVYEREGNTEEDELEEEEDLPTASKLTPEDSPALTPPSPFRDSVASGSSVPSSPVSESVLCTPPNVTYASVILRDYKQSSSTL
UniProt P14600, whole entry, looked up: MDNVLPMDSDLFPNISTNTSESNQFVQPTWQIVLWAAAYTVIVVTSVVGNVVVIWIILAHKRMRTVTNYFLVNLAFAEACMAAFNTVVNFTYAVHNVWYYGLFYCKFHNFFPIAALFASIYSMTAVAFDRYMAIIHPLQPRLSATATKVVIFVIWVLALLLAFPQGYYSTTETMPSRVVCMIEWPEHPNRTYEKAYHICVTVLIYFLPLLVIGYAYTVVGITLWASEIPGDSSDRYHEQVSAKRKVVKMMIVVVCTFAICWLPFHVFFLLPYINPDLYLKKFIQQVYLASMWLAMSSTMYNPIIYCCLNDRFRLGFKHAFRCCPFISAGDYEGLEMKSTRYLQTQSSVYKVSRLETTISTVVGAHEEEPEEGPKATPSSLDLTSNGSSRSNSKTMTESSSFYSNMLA
UniProt P16177, whole entry, looked up: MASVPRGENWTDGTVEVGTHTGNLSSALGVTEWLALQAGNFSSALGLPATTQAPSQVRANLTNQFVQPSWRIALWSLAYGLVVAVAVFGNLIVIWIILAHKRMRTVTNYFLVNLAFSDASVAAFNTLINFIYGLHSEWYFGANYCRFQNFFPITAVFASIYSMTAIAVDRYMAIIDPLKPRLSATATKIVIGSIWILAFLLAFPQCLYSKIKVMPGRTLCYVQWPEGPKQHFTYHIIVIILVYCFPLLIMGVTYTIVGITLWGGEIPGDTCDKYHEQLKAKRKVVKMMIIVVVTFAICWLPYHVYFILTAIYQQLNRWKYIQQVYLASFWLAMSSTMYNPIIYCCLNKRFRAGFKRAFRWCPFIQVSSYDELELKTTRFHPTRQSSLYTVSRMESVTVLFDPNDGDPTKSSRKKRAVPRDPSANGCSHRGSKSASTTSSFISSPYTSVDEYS
UniProt P33535, whole entry, looked up: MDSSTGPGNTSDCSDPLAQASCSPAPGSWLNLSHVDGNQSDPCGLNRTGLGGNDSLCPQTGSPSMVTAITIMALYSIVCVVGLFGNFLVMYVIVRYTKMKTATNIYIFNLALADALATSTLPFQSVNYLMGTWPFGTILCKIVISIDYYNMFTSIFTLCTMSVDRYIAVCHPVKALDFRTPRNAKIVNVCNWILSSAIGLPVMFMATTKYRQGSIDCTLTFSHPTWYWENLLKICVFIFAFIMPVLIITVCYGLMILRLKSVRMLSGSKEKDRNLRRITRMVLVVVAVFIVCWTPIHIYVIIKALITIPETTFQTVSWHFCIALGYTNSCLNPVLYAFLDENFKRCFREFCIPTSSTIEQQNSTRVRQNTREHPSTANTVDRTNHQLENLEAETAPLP
UniProt P31424, whole entry, looked up: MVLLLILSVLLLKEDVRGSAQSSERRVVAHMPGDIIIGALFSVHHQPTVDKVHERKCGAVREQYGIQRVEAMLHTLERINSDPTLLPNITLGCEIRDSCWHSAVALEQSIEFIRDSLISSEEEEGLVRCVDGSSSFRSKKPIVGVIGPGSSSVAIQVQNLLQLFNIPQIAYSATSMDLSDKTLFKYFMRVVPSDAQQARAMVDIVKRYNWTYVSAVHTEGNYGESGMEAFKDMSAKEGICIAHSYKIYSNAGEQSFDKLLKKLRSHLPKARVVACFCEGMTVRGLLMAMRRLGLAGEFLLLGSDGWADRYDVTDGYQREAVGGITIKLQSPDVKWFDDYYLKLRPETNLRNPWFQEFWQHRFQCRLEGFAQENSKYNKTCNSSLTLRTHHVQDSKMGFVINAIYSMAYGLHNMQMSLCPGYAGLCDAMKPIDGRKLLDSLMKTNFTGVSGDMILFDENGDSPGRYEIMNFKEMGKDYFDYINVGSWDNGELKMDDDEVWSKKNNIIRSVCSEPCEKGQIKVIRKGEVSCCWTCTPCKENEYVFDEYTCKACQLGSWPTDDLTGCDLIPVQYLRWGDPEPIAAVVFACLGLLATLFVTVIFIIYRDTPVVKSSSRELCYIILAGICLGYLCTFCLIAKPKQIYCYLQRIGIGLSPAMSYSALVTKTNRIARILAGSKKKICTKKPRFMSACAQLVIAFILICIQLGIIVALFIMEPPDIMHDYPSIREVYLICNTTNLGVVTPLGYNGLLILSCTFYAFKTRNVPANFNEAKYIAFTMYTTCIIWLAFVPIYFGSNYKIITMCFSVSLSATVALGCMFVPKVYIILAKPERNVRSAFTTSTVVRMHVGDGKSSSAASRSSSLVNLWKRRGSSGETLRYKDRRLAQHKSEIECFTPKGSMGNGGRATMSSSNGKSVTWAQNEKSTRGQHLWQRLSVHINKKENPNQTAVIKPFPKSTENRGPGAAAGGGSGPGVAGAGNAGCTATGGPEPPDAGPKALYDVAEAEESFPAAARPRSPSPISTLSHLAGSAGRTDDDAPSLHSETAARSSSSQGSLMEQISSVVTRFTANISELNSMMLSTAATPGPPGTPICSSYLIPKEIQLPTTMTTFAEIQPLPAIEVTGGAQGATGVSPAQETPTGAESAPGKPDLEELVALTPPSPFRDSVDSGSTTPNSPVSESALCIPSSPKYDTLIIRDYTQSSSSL

How the values were obtained:
[1] = molecular target: Metabotropic glutamate receptor 1 (Rattus norvegicus) (UniProt P23385); experiment: NVS_GPCR_rmMGluR1: NovaScreen (NVS) G Protein-Coupled Receptor Assay for rat Glutamate Metabotropic Receptor 1 (MGluR1) (AID 2283305)
Outline: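 Rat cerebellum membrane preparation, radioligand displacement binding read by filter-based scintillation counting 1 hour after dosing. Initial duplicate single-point screen at 25 uM, then concentration-response up to 50 uM; loss of signal versus DMSO baseline scored.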

[2] = molecular target: rat Neurokinin-1 Receptor (NK1), Tacr1 (gene 24807) (UniProt P14600); experiment: NVS_GPCR_rNK1: NovaScreen (NVS) G Protein-Coupled Receptor Assay for rat Neurokinin-1 Receptor (NK1) (AID 2283309)
Outline: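 Rat submaxillary gland membranes; radioligand displacement read by filter-based scintillation counting after 1 h. Primary screen in duplicate at 25 uM; actives retested in concentration series; loss of binding fitted versus DMSO.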

[3] = molecular target: rat Neurokinin-3 Receptor (NK3), Tacr3 (gene 24808) (UniProt P16177); experiment: NVS_GPCR_rNK3: NovaScreen (NVS) G Protein-Coupled Receptor Assay for rat Neurokinin-3 Receptor (NK3) (AID 2283310)
Outline: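 Rat cortical membranes; radioligand binding with filtration and scintillation counting, 2 h after dosing. Primary screen in duplicate at 25 uM, then concentration-response up to 50 uM; loss of binding signal relative to DMSO.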

[4] = molecular target: rat Opioid Receptor, Non-selective Sodium (Na+) Binding, Oprm1 (gene 25601) (UniProt P33535); experiment: NVS_GPCR_rOpiate_NonSelectiveNa: NovaScreen (NVS) G Protein-Coupled Receptor Assay for rat Opioid Receptor, Non-selective Sodium (Na+) Binding (AID 2283311)
Outline: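 Rat forebrain membranes, radioligand displacement with filter scintillation counting, 1.5 h incubation. Screened in duplicate at 25 µM; hits then run in concentration-response up to 50 µM; loss of binding fitted versus DMSO.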

[5] = molecular target: rat Glutamate Metabotropic Receptor 5 (MGluR5), Grm5 (gene 24418) (UniProt P31424); experiment: NVS_GPCR_rmMGluR5: NovaScreen (NVS) G Protein-Coupled Receptor Assay for rat Glutamate Metabotropic Receptor 5 (MGluR5) (AID 2283307)
Outline: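 Rat whole-brain membrane preparation; filter-based radioligand binding read by scintillation counting, 1.5 h after dosing. Single-point screen at 25 uM in duplicate; hits over threshold (e.g. 30% inhibition) retested in concentration-response up to 50 uM; loss of signal vs DMSO.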

For CC(C)(c1ccc(O)cc1)c1ccc(O)cc1, the AC50 [1] was inconclusive: 0.594 µM.

CCC(=C(c1ccc(O)cc1)c1ccc(OCCN(C)C)cc1)c1ccccc1 was tested, and the outcome [2] was “inactive”.

CS(=O)(=O)OCCCCOS(C)(=O)=O was tested, and the AC50 [2] was inconclusive: 25 µM.

CCN(Cc1cccnc1)C(=O)c1cccc(Cl)c1[C@]1(C)C(=O)N(Cc2ccc(OC)cc2OC)c2ccc(Cl)cc21 was tested, and the AC50 [3] was active: 9.75 µM and the AC50 [4] was active: 13.9 µM.

With COCCOC[C@H](CC1(C(=O)NC2CCC(C(=O)O)CC2)CCCC1)C(=O)Oc1ccc2c(c1)CCC2 (stereo partly drawn) the AC50 [4] was inconclusive: 0.525 µM.

C[C@]12CC[C@@H]3c4ccc(O)cc4C[C@@H](CCCCCCCCCS(=O)CCCC(F)(F)C(F)(F)F)[C@H]3[C@@H]1CC[C@@H]2O (stereo partly drawn) was tested, and the outcome [2] was “inactive”.

CCCCCCCCCCCCCCCCO was tested, and the AC50 [4] was inconclusive: 6.7 µM.

With Clc1ccccc1C(c1ccccc1)(c1ccccc1)n1ccnc1 the outcome [4] was “inactive”.

O=C1CCCCC1 was tested, and the AC50 [3] was inconclusive: 1.07 µM.

In the case of COc1ccc(OC(F)(F)F)cc1CN[C@H]1CCCN[C@H]1c1ccccc1, the AC50 [3] is reported as active: 12.5 µM and the outcome [4] is reported as “inactive”.

With CN(C)CCOC(c1ccccc1)c1ccccc1 the AC50 [5] was inconclusive: 25 µM.

C[C@@H]1C[C@H]2[C@@H]3CCC4=CC(=O)C=C[C@]4(C)[C@@]3(F)[C@@H](O)C[C@]2(C)[C@@]1(O)C(=O)COP(=O)(O)O was tested, and the AC50 [5] was inconclusive: 17.1 µM.

In the case of CCc1nc(N)nc(N)c1-c1ccc(Cl)cc1, the AC50 [2] is reported as inconclusive: 0.122 µM and the outcome [4] is reported as “inactive”.

In the case of O=C(c1ccc(OCCN2CCCCC2)cc1)c1c(-c2ccc(O)cc2)sc2cc(O)ccc12, the outcome [5] is reported as “inactive”.

In the case of C#C[C@]1(O)CC[C@H]2[C@@H]3CCC4=CC(=O)CC[C@@H]4[C@H]3CC[C@@]21CC, the AC50 [5] is reported as inconclusive: 41.5 µM.

For CSC(=O)c1cccc2nnsc12, the AC50 [3] was inconclusive: 6.84 µM.

Nc1ccc(Nc2ccccc2)cc1 was tested, and the AC50 [2] was inconclusive: 25 µM.

In the case of CC[C@H]1CC[C@H](NCc2cc3c(cc2OC)[C@H]2C[C@H]2C(=O)N3C)[C@H](c2ccccc2)N1, the AC50 [4] is reported as active: 2.83 µM.

O=C(c1ccccc1)C1CCCCC1 was tested, and the AC50 [3] was inconclusive: 6.07 µM.

In the case of O=c1c(O)c(-c2ccc(O)c(O)c2)oc2cc(O)cc(O)c12, the AC50 [3] is reported as inconclusive: 0.176 µM.

For COCCO, the AC50 [3] was inconclusive: 0.612 µM.

CCc1c(C(=O)NN2CCCCC2)nn(-c2ccc(Cl)cc2Cl)c1-c1ccc(Br)cc1 was tested, and the outcome [3] was “inactive”.

For CC(=O)NC1(c2cccc(F)c2)CCN(CC[C@@]2(c3ccc(Cl)c(Cl)c3)CN(c3ccccc3)C(=O)CO2)CC1, the AC50 [2] was active: 14.5 µM.

For CCCOC(=O)c1cc(O)c(O)c(O)c1, the AC50 [3] was active: 7.59 µM.

In the case of CC#C[C@]1(O)CC[C@H]2[C@@H]3CCC4=CC(=O)CCC4=C3[C@@H](c3ccc(N(C)C)cc3)C[C@@]21C, the outcome [5] is reported as “inactive”.

c1ccc2c(c1)Cc1ccccc1-2 was tested, and the AC50 [4] was inconclusive: 43.2 µM.

With C[C@]12CC[C@@H]3c4ccc(O)cc4CC[C@H]3[C@@H]1CC[C@H]2O the outcome [4] was “inactive”.

For CC[C@H](c1ccc(O)cc1)[C@@H](CC)c1ccc(O)cc1, the AC50 [5] was inconclusive: 25 µM, the outcome [3] was “inactive” and the AC50 [4] was active: 1.77 µM.

In the case of c1ccc2[nH]c(-c3cscn3)nc2c1, the AC50 [3] is reported as inconclusive: 25 µM.

CN(C[C@@H](CC[N+]12CCC(C3CCCCC3)(CC1)CC2)c1ccc(Cl)c(Cl)c1)C(=O)c1cc(C(F)(F)F)cc(C(F)(F)F)c1 was tested, and the AC50 [3] was active: 5.47 µM.

For OCC(CO)(CO)CO, the AC50 [2] was inconclusive: 25 µM and the outcome [3] was “inactive”.

For CCC(C)N(C)C(=O)c1cc2ccccc2c(-c2ccccc2Cl)n1 (stereo not drawn), the AC50 [3] was active: 6.96 µM.
